# Measurements reported in PubChem BioAssay AID1671190 (National Center for Advancing Translational Sciences (NCATS), 2021).
# Chains of the proteins cited; added tags and fusions are not shown. Lines headed by an entry give the natural chain unless they say otherwise; changes in a name come on top.
# UniProt P18054: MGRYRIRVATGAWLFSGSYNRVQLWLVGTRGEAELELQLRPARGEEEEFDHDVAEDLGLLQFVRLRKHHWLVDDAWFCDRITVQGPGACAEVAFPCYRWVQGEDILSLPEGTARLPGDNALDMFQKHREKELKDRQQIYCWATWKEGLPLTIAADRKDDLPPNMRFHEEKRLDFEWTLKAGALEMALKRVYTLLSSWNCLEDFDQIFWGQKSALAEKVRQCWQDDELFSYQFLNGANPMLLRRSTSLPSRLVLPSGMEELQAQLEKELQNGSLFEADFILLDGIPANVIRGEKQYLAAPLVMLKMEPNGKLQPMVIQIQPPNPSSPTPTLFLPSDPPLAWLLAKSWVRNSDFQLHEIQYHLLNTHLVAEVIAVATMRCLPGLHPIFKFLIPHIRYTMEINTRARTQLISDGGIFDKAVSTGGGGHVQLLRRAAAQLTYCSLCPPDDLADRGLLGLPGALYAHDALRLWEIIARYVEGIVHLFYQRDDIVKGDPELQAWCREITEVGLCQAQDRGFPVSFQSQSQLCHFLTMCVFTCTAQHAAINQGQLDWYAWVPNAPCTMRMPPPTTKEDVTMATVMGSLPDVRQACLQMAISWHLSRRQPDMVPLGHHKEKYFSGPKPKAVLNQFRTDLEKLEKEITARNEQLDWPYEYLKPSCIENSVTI
# Several values for one entry are separate records, joined by “and”; a condition that tells them apart may be missing. Identical values can stand only once. The whole screen tested about 580,000 compounds, of which about 6,100 (1.1%) were called active. The shares of active, inactive and inconclusive entries below differ from those in the screen. Calls follow the shape of the dose curve; as a rule, active = well fitted inhibition curve with a large enough effect; inconclusive = small, poorly fitted or top-dose-only effect, or another doubt; inactive = no such curve, though single readings can be large or run the other way. A potency beside an inconclusive call is a rough fit, not a confirmed value.
# Target: Polyunsaturated fatty acid lipoxygenase ALOX12 (Homo sapiens) (UniProt P18054)
# Test: Primary qHTS assay for inhibitors of human arachidonate 12S-lipoxygenase (ALOX12): Round 2
# Conditions: purified 12hLO, xylenol orange hydroperoxide absorbance; activity change, negative = inhibition: at 108 µM (top of the series) unless noted
# Summary of the method: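 Hydroperoxide product was detected by ferrous iron/xylenol orange as the 573 to 405 nm absorbance ratio. Arachidonic acid at 40 uM (final) was turned over for 30 min at room temperature by 150 nM human 12hLO, pH 7.0 Hepes buffer, after 15 min compound preincubation.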
# % is scaled to controls: 0 for no effect and ±100 for the full control effect; potency is read from the fitted curve at half-maximal effect.
SMILES,Potency,"activity change, negative = inhibition"
COc1cc(CN2CCC(C)(NC(C)=O)CC2)cc(-c2ccc3[nH]ncc3c2)c1,"inconclusive: 17.8 µM [inhibitor, partial curve, poor fit]",–
CCCCNC(=S)N/N=C/c1sccc1C,"inconclusive: 35.5 µM [inhibitor, partial curve]",–
Cc1ccccc1NS(=O)(=O)c1ccc(C(=O)NCC(c2ccccc2)N(C)C)cc1 (stereo not given),"inconclusive: 44.7 µM [inhibitor, single point]",–
CCOC(=O)N1CCC(NC(=O)c2cc(-c3ccc(F)cc3)[nH]c2C)CC1,–,inactive: 0%
COCCOC(=O)c1[nH]c2c(c1C)C(=O)CC(c1ccco1)C2 (stereo not given),"inconclusive: 15.8 µM [inhibitor, single point]",–
Cc1cc(=O)oc2cc(NC(=O)COc3cccc(C(F)(F)F)c3)ccc12,"inconclusive: 100 µM [inhibitor, single point]",–
Cc1ccc(-c2cnc3c(c2)C(=O)N([C@H](C)CO)C[C@H](C)[C@@H](CN(C)Cc2ccccc2F)O3)cc1,"inconclusive: 35.5 µM [inhibitor, partial curve]",–
O=[N+]([O-])c1ccc(OC[C@@H](O)CN2CCC(C(O)(c3ccccc3)c3ccccc3)CC2)c(Cl)c1,"inconclusive: 44.7 µM [inhibitor, partial curve, poor fit]",–
Cc1ccc(S(=O)(=O)N2[C@@H](c3cccc(Cl)c3)C(C(=O)O)=CC[C@H]2c2ccc(C(C)C)cc2)cc1,"inconclusive: 44.7 µM [inhibitor, partial curve, poor fit]",–
O=C(Nc1cccc(F)c1)c1ccc2c(c1)CCC2,"inconclusive: 31.6 µM [inhibitor, single point]",–
Cc1nnc(N2CCN(c3ccccc3)CC2)c2c1nnn2Cc1ccccc1Cl,"inconclusive: 28.2 µM [inhibitor, partial curve, poor fit]",–
COc1ccc(Cn2nnnc2C(c2ccccc2OC)N2CCC(C(N)=O)CC2)cc1 (stereo not given),–,inactive: 18.7%
Cc1ccc(NC2(c3nnnn3-c3ccccc3C)CCCCC2)c(C)c1,–,inactive: -10.1%
Cc1ccc(NC(=S)/C(C#N)=C2/Nc3ccccc3S2)cc1,active: 12.6 µM,–
Cc1[nH]c2ccccc2c1CC(=O)Nc1ccc(Nc2ccccc2)cc1,"inconclusive: 100 µM [inhibitor, single point]",–
CCC[C@H]1[C@@H](NS(=O)(=O)c2ccc(C)cc2)CC[C@@]23CCCN2C(=O)CCC[C@@H]13,–,inactive: 5.62%
Cc1ccc(CNC(=O)c2nccnc2C(=O)O)cc1,"inconclusive: 3.55 µM [inhibitor, full curve, poor fit]",–
Cc1cccc(-n2ncc3c(NC(C)C)ncnc32)c1,–,inactive: -6.06%
CC/C(=N\NS(=O)(=O)c1ccc(C)cc1)c1ccco1,"inconclusive: 126 µM [inhibitor, partial curve, poor fit]",–
Cc1ccc(NC(=O)c2nc[nH]c2C(=O)N[C@H](C)c2ccccc2)cc1,"inconclusive: 50.1 µM [inhibitor, partial curve, poor fit]",–
Cc1cccc(C(C)C)c1NC(=O)C(NS(=O)(=O)c1cccc2nsnc12)c1ccccc1 (stereo not given),"inconclusive: 89.1 µM [inhibitor, partial curve, poor fit]",–
Cc1ccc(NC(=O)C2C3/C=C\CCCCC32)cc1 (stereo not given),–,inactive: 0.573%

SMILES,Potency,"activity change, negative = inhibition"
Cc1ccc(C)c(/C=C/c2nc3ccccc3s2)c1,–,inactive: -17%
COc1ccc(CCC(C)Nc2cccc(C)c2)cc1 (stereo not given),"inconclusive: 7.08 µM [inhibitor, full curve, poor fit]",–
CCN1CCN(Cc2ccc(NC(=O)c3cc(NC(=O)N4CCNC4=O)cc(OC)c3)cc2C(F)(F)F)CC1,"inconclusive: 10 µM [inhibitor, full curve]",–
Cn1c(=O)c2cc(NC(=S)NC3CC3)ccc2n1Cc1ccccc1,"inconclusive: 100 µM [inhibitor, partial curve, poor fit]",–
O=C(NCc1ccccn1)C1Nc2ccc(C(F)(F)F)cc2C2C=CCC12 (stereo not given),"inconclusive: 22.4 µM [inhibitor, full curve, poor fit]",–
COCCCN1CN(S(=O)(=O)c2cccs2)c2nc3ccccc3nc21,–,inactive: 2.53%
CC1(c2nnc(Cc3ccccc3)o2)CC(c2cccc(F)c2)=NO1 (stereo not given),–,inactive: -7.77%
CCOC(=O)/C(=C/c1c2ccccc2cc2ccccc12)NC(=O)c1ccccc1,"inconclusive: 44.7 µM [inhibitor, partial curve, poor fit]",–
Cc1ccc(/C=N/N2CCN(C3c4ccccc4-c4ccccc43)CC2)o1,"inconclusive: 112 µM [inhibitor, single point]",–
S=C(NCc1ccco1)N/N=C/c1ccccc1Cl,"inconclusive: 50.1 µM [inhibitor, partial curve, poor fit]",–
CC(=O)N/C(=C\c1ccc(Cl)cc1)C(=O)O,"inconclusive: 89.1 µM [inhibitor, partial curve, poor fit]",–
O=C(Nc1ccc2c(c1)OCCO2)C(c1cc2ccccc2o1)N1CCN(C/C=C/c2ccccc2)CC1 (stereo not given),"inconclusive: 126 µM [inhibitor, single point]",–
COc1ccc(CN(C(=S)Nc2ccccc2)C2CC(=O)N(c3ccc(Cl)cc3)C2=O)cc1 (stereo not given),"inconclusive: 12.6 µM [inhibitor, partial curve, poor fit]",–
Cc1ccc(NC(=O)CCc2c[nH]c3ccccc23)cc1Cl,"inconclusive: 44.7 µM [inhibitor, partial curve, poor fit]",–
Brc1ccc(-c2noc(COc3ccc4c(c3)CCC4)n2)o1,"inconclusive: 35.5 µM [inhibitor, single point]",–
C[C@]12CCC(O)CC1=CCC1C2CC[C@]2(C)/C(=N\NC(N)=S)CCC12 (stereo not given in full),"inconclusive: 100 µM [inhibitor, single point]",–
Cc1ccccc1COC(=O)c1nn(-c2ccccc2)nc1N,"inconclusive: 50.1 µM [inhibitor, full curve, poor fit]",–
CC(=O)N1Cc2ccccc2CC2(CCN(CC3CCNC3)CC2)C1 (stereo not given),–,inactive: -20.4% [at 6.33 µM]
Cn1ccc2c(-c3ccc(C(=O)O)cc3)cc3c(c21)C1CCC3O1 (stereo not given),"inconclusive: 112 µM [inhibitor, single point]",–
Cc1cccc(Cc2c(C)nc3nc(C(F)(F)F)[nH]n3c2=O)c1,"inconclusive: 5.01 µM [inhibitor, partial curve, poor fit]",–
N[C@@H](Cc1cc(I)c(Oc2ccc(O)c(I)c2)c(I)c1)C(=O)O,"inconclusive: 44.7 µM [inhibitor, partial curve, poor fit] and inconclusive: 35.5 µM [inhibitor, partial curve, poor fit]",–
NC(=O)CC(NC(=O)c1ccccc1)c1ccc(NC2CCCC2)c([N+](=O)[O-])c1 (stereo not given),–,inconclusive: -32.8% [inhibitor]

SMILES,Potency,"activity change, negative = inhibition"
COc1cccc(NC(=S)N2CCCN(Cc3ccc(F)cc3)C2)c1,"inconclusive: 50.1 µM [inhibitor, partial curve, poor fit]",–
O=c1c(F)cn(C2CCCO2)c(=O)n1Cc1ccc(Cl)cc1 (stereo not given),–,inactive: 1.23%
O=C(c1ccco1)N1CCN(C(=O)C2CC(c3ccc(F)cc3)=NO2)CC1 (stereo not given),"inconclusive: 89.1 µM [inhibitor, single point]",–
CNC(=O)c1ccc(CNCc2ccco2)cc1,–,inactive: -16.1%
Cc1ccc(NCc2ccccc2O)cc1,–,inactive: 4.32%
O=c1c2cccc(Cl)c2nc2n1Cc1ccccc1-2,"inconclusive: 50.1 µM [inhibitor, partial curve, poor fit]",–
Cc1cc(C)c2c(c1)NC(C(=O)O)C1CC=CC21 (stereo not given),active: 7.94 µM,–
Cc1ccc(NC(=O)CCc2c(C)nc3c(-c4ccc(F)cc4)c(C)nn3c2C)cc1F,"inconclusive: 178 µM [inhibitor, partial curve, poor fit]",–
CCCCn1nc(C(=O)NC(C)c2ccc3c(c2)OCCO3)c2ccccc2c1=O (stereo not given),–,inactive: -10.1%
COC(=O)c1cc2oc(C)cc2n1Cc1ccccc1C,"inconclusive: 1.12 µM [inhibitor, full curve, poor fit]",–
CCC(=O)Nc1ccc(NC(=O)c2ccco2)cc1,–,inactive: 7.69% [at 57.4 µM]
CC(C)=CCC1=C(OCC(=O)O)C(=O)c2ccccc2C1=O,–,inactive: -29.9%
NC1CC(c2nnc(COc3ccc4c(c3)CCNCC4)n2C2CC2)C1 (stereo not given),"inconclusive: 2.82 µM [inhibitor, full curve, poor fit]",–
O=C(COC(=O)c1cc[n+]([O-])cc1)Nc1ccc([N+](=O)[O-])cc1C(F)(F)F,"inconclusive: 112 µM [inhibitor, single point]",–
CN(CC1CCCO1)S(=O)(=O)c1ccc(C(=O)Nc2ccccc2F)cc1 (stereo not given),–,inactive: 9.82%
O=C(/C=N/O)Nc1ccccc1[N+](=O)[O-],"inconclusive: 0.562 µM [inhibitor, full curve]",–
O=C(/C=C/c1ccccc1Cl)N1CCC(c2nc3ccccc3o2)CC1,"inconclusive: 89.1 µM [inhibitor, partial curve, poor fit] and inconclusive: 50.1 µM [inhibitor, partial curve, poor fit]",–
CN(C)c1ccc(N2C(=NC(=O)C3CCCO3)SC3CS(=O)(=O)CC32)cc1 (stereo not given),–,inactive: -1.17%
c1cncc(CNc2ncncc2-c2cccnc2)c1,"inconclusive: 56.2 µM [inhibitor, partial curve, poor fit]",–
COc1cc2c(cc1OC)C(c1cccc(Br)c1)CC(=O)N2 (stereo not given),"inconclusive: 89.1 µM [inhibitor, partial curve, poor fit]",–
O=C(NC1CCCC1)C(c1ccccc1F)N(C(=O)Cc1cccs1)c1ccc2c(c1)OCCO2 (stereo not given),–,inactive: -0.563%
